In patent publication US20180320217A1, “METHODS FOR SAMPLING AND MEASURING ORAL LAVAGE PROTEINS” (The Procter & Gamble Company, priority 2017, published 2018):

Test system: proteins in oral lavage
Experiment: Abundance of proteins in human oral lavage (SomaLogic), TABLE 1
Assay type: in vivo
Settings: for Means (Original Scale) High bleeder BL / Means (Original Scale) High bleeder W4 / Means (Original Scale) Low bleeder BL: abundance in oral lavage; for Means (Original Scale) High bleeder BL: high bleeders (gingivitis); for Means (Original Scale) High bleeder BL / Means (Original Scale) Low bleeder BL: baseline; for Means (Original Scale) High bleeder W4 / Fold Change High bleeder W4 vs High bleeder BL: high bleeders; for Means (Original Scale) High bleeder W4: week 4 of investigative products; for Means (Original Scale) Low bleeder BL: low bleeders (healthy); for Fold Change High bleeder W4 vs High bleeder BL / Fold Change High bleeder BL vs Low bleeder BL: oral lavage
[1] = week 4 of treatment vs baseline
[2] = high vs low bleeders at baseline
[3] = high bleeders vs low bleeders at baseline
[4] = week 4 of investigative products vs baseline

Row | Molecule | Means (Original Scale) High bleeder BL | Means (Original Scale) High bleeder W4 | Means (Original Scale) Low bleeder BL | Fold Change High bleeder W4 vs High bleeder BL [1] | Fold Change High bleeder BL vs Low bleeder BL [2] | Fold Change High bleeder BL vs Low bleeder BL [3] | Fold Change High bleeder W4 vs High bleeder BL [4]
1 | Secreted frizzled-related protein 1 (protein, UniProt Q8N474 32-314, looked up) Secreted frizzled-related …: SEYDYVSFQSDIGPYQSGRFYTKPPQCVDIPADLRLCHNVGYKKMVLPNLLEHETMAEVKQQASSWVPLLNKNCHAGTQVFLCSLFAPVCLDRPIYPCRWLCEAVRDSCEPVMQFFGFYWPEMLKCDKFPEGDVCIAMTPPNATEASKPQGTTVCPPCDNELKSEAIIEHLCASEFALRMKIKEVKKENGDKKIVPKKKKPLKLGPIKKKDLKKLVLYLKNGADCPCHQLDNLSHHFLIMGRKVKSQYLLTAIHKWDKKNKEFKNFMKKMKNHECPTFQSVFK | 4666 | 2482 | 1212 | 0.59 | 3.68 | – | –
2 | Semaphorin-6A (protein, UniProt Q9H2E6 19-1030, looked up) Semaphorin-6A: GFPEDSEPISISHGNYTKQYPVFVGHKPGRNTTQRHRLDIQMIMIMNGTLYIAARDHIYTVDIDTSHTEEIYCSKKLTWKSRQADVDTCRMKGKHKDECHNFIKVLLKKNDDALFVCGTNAFNPSCRNYKMDTLEPFGDEFSGMARCPYDAKHANVALFADGKLYSATVTDFLAIDAVIYRSLGESPTLRTVKHDSKWLKEPYFVQAVDYGDYIYFFFREIAVEYNTMGKVVFPRVAQVCKNDMGGSQRVLEKQWTSFLKARLNCSVPGDSHFYFNILQAVTDVIRINGRDVVLATFSTPYNSIPGSAVCAYDMLDIASVFTGRFKEQKSPDSTWTPVPDERVPKPRPGCCAGSSSLERYATSNEFPDDTLNFIKTHPLMDEAVPSIFNRPWFLRTMVRYRLTKIAVDTAAGPYQNHTVVFLGSEKGIILKFLARIGNSGFLNDSLFLEEMSVYNSEKCSYDGVEDKRIMGMQLDRASSSLYVAFSTCVIKVPLGRCERHGKCKKTCIASRDPYCGWIKEGGACSHLSPNSRLTFEQDIERGNTDGLGDCHNSFVALNGHSSSLLPSTTTSDSTAQEGYESRGGMLDWKHLLDSPDSTDPLGAVSSHNHQDKKGVIRESYLKGHDQLVPVTLLAIAVILAFVMGAVFSGITVYCVCDHRRKDVAVVQRKEKELTHSRRGSMSSVTKLSGLFGDTQSKDPKPEAILTPLMHNGKLATPGNTAKMLIKADQHHLDLTALPTPESTPTLQQKRKPSRGSREWERNQNLINACTKDMPPMGSPVIPTDLPLRASPSHIPSVVVLPITQQGYQHEYVDQPKMSEVAQMALEDQAATLEYKTIKEHLSSKSPNHGVNLVENLDSLPPKVPQREASLGPPGASLSQTGLSKRLEMHHSSSYGVDYKRSYPTNSLTRSHQATTLKRNNTNSSNSSHLSRNQSFGRGDNPPPAPQRVDSIQVHSSQPSGQAVTVSRQPSLNAYNSLTRSGLKRTPSLKPDVPPKPSFAPLSTSMKPNDACT | 3637 | 2503 | 396 | 0.68 | 11.58 | – | –
3 | Serine protease 27 (protein, UniProt Q9BQR3 35-290, looked up) Serine protease 27: MVGGQDTQEGEWPWQVSIQRNGSHFCGGSLIAEQWVLTAAHCFRNTSETSLYQVLLGARQLVQPGPHAMYARVRQVESNPLYQGTASSADVALVELEAPVPFTNYILPVCLPDPSVIFETGMNCWVTGWGSPSEEDLLPEPRILQKLAVPIIDTPKCNLLYSKDTEFGYQPKTIKNDMLCAGFEEGKKDACKGDSGGPLVCLVGQSWLQAGVISWGEGCARQNRPGVYIRVTAHHNWIHRIIPKLQFQPARLGGQK | 10968 | 6186 | 7376 | 0.55 | 1.83 | – | –
4 | Angiotensinogen (protein, UniProt P01019 25-476, looked up) Angiotensinogen: DRVYIHPFHLVIHNESTCEQLAKANAGKPKDPTFIPAPIQAKTSPVDEKALQDQLVLVAAKLDTEDKLRAAMVGMLANFLGFRIYGMHSELWGVVHGATVLSPTAVFGTLASLYLGALDHTADRLQAILGVPWKDKNCTSRLDAHKVLSALQAVQGLLVAQGRADSQAQLLLSTVVGVFTAPGLHLKQPFVQGLALYTPVVLPRSLDFTELDVAAEKIDRFMQAVTGWKTGCSLMGASVDSTLAFNTYVHFQGKMKGFSLLAEPQEFWVDNSTSVSVPMLSGMGTFQHWSDIQDNFSVTQVPFTESACLLLIQPHYASDLDKVEGLTFQQNSLNWMKKLSPRTIHLTMPQLVLQGSYDLQDLLAQAELPAILHTELNLQKLSNDRIRVGEVLNSIFFELEADEREPTESTQQLNKPEVLEVTLNRPFLFAVYDQSATALHFLGRVANPLSTA | 39831 | 25334 | 13227 | – | – | 6.12 | 0.95
5 | S-formylglutathione hydrolase (protein, UniProt P10768 2-282, looked up) S-formylglutathione hydrolase: ALKQISSNKCFGGLQKVFEHDSVELNCKMKFAVYLPPKAETGKCPALYWLSGLTCTEQNFISKSGYHQSASEHGLVVIAPDTSPRGCNIKGEDESWDFGTGAGFYVDATEDPWKTNYRMYSYVTEELPQLINANFPVDPQRMSIFGHSMGGHGALICALKNPGKYKSVSAFAPICNPVLCPWGKKAFSGYLGTDQSKWKAYDATHLVKSYPGSQLDILIDQGKDDQFLLDGQLLPDNFIAACTEKKIPVVFRLQEGYDHSYYFIATFITDHIRHHAKYLNA | 455 | 283 | 122 | 0.62 | 4.02 | – | –
6 | Sialic acid-binding Ig-like lectin 14 (protein, UniProt Q08ET2 17-396, looked up) Sialic acid-binding Ig-like …: EKPVYELQVQKSVTVQEGLCVLVPCSFSYPWRSWYSSPPLYVYWFRDGEIPYYAEVVATNNPDRRVKPETQGRFRLLGDVQKKNCSLSIGDARMEDTGSYFFRVERGRDVKYSYQQNKLNLEVTALIEKPDIHFLEPLESGRPTRLSCSLPGSCEAGPPLTFSWTGNALSPLDPETTRSSELTLTPRPEDHGTNLTCQVKRQGAQVTTERTVQLNVSYAPQNLAISIFFRNGTGTALRILSNGMSVPIQEGQSLFLACTVDSNPPASLSWFREGKALNPSQTSMSGTLELPNIGAREGGEFTCRVQHPLGSQHLSFILSVQRSSSSCICVTEKQQGSWPLVLTLIRGALMGAGFLLTYGLTWIYYTRCGGPQQSRAERPG | 1602 | 996 | 1489 | 0.70 | 1.43 | – | –
7 | Annexin A6 (protein, UniProt P08133 2-673, looked up) Annexin A6: AKPAQGAKYRGSIHDFPGFDPNQDAEALYTAMKGFGSDKEAILDIITSRSNRQRQEVCQSYKSLYGKDLIADLKYELTGKFERLIVGLMRPPAYCDAKEIKDAISGIGTDEKCLIEILASRTNEQMHQLVAAYKDAYERDLEADIIGDTSGHFQKMLVVLLQGTREEDDVVSEDLVQQDVQDLYEAGELKWGTDEAQFIYILGNRSKQHLRLVFDEYLKTTGKPIEASIRGELSGDFEKLMLAVVKCIRSTPEYFAERLFKAMKGLGTRDNTLIRIMVSRSELDMLDIREIFRTKYEKSLYSMIKNDTSGEYKKTLLKLSGGDDDAAGQFFPEAAQVAYQMWELSAVARVELKGTVRPANDFNPDADAKALRKAMKGLGTDEDTIIDIITHRSNVQRQQIRQTFKSHFGRDLMTDLKSEISGDLARLILGLMMPPAHYDAKQLKKAMEGAGTDEKALIEILATRTNAEIRAINEAYKEDYHKSLEDALSSDTSGHFRRILISLATGHREEGGENLDQAREDAQVAAEILEIADTPSGDKTSLETRFMTILCTRSYPHLRRVFQEFIKMTNYDVEHTIKKEMSGDVRDAFVAIVQSVKNKPLFFADKLYKSMKGAGTDEKTLTRIMVSRSEIDLLNIRREFIEKYDKSLHQAIEGDTSGDFLKALLALCGGED | 7520 | 4233 | 2676 | – | – | 3.10 | 0.62
8 | SLAM family member 7 (protein, UniProt Q9NQ25 23-335, looked up) SLAM family member 7: SGPVKELVGSVGGAVTFPLKSKVKQVDSIVWTFNTTPLVTIQPEGGTIIVTQNRNRERVDFPDGGYSLKLSKLKKNDSGIYYVGIYSSSLQQPSTQEYVLHVYEHLSKPKVTMGLQSNKNGTCVTNLTCCMEHGEEDVIYTWKALGQAANESHNGSILPISWRWGESDMTFICVARNPVSRNFSSPILARKLCEGAADDPDSSMVLLCLLLVPLLLSLFVLGLFLWFLKRERQEEYIEEKKRVDICRETPNICPHSGENTEYDTIPHTNRTILKEDPANTVYSTVEIPKKMENPHSLLTMPDTPRLFAYENVI | 996 | 712 | 561 | 0.76 | 1.66 | – | –
9 | SPARC-related modular calcium-binding protein 1 (protein, UniProt Q9H4F8 27-434, looked up) SPARC-related modular …: HRTTGPRFLISDRDPQCNLHCSRTQPKPICASDGRSYESMCEYQRAKCRDPTLGVVHRGRCKDAGQSKCRLERAQALEQAKKPQEAVFVPECGEDGSFTQVQCHTYTGYCWCVTPDGKPISGSSVQNKTPVCSGSVTDKPLSQGNSGRKDDGSKPTPTMETQPVFDGDEITAPTLWIKHLVIKDSKLNNTNIRNSEKVYSCDQERQSALEEAQQNPREGIVIPECAPGGLYKPVQCHQSTGYCWCVLVDTGRPLPGTSTRYVMPSCESDARAKTTEADDPFKDRELPGCPEGKKMEFITSLLDALTTDMVQAINSAAPTGGGRFSEPDPSHTLEERVVHWYFSQLDSNSSNDINKREMKPFKRYVKKKAKPKKCARRFTDYCDLNKDKVISLPELKGCLGVSKEGRLV | 25985 | 17574 | 8240 | 0.66 | 2.94 | – | –
10 | Superoxide dismutase [Mn], mitochondrial (protein, UniProt P04179 25-222, looked up) Superoxide dismutase [Mn], …: KHSLPDLPYDYGALEPHINAQIMQLHHSKHHAAYVNNLNVTEEKYQEALAKGDVTAQIALQPALKFNGGGHINHSIFWTNLSPNGGGEPKGELLEAIKRDFGSFDKFKEKLTAASVGVQGSGWGWLGFNKERGHLQIAACPNQDPLQGTTGLIPLLGIDVWEHAYYLQYKNVRPDYLKAIWNVINWENVTERYMACKK | 25375 | 18580 | 14640 | 0.72 | 1.86 | – | –
